# Results reported in patent US20150152070A1, “METHODS OF PEST CONTROL IN SOYBEAN” (Syngenta Participations AG, priority 2012, published 2015).
# Some results were stated once for a whole list of compounds, not compound by compound.
# Test system: Euschistus heros (Neotropical Brown Stink Bug)
# Assay: Euschistus heros (Neotropical Brown Stink Bug) contact/feeding activity on sprayed soybean plants
# Type: in vivo
# Conditions: 50 ppm, mortality of N-2 nymphs 5 days after infestation
# Method: Euschistus heros (Neotropical Brown Stink Bug) (Contact/Feeding Activity)
# 2 week old soybean plants are sprayed in a turn table spray chamber with the diluted spray solutions. After drying, 2 soybean seeds are added and plants are infested with 10 N-2 nymphs of the neotropical brown stink bug Euschistus heros in plastic test boxes. Boxes are incubated in a climate chamber at 25° C. and 60% RH. Evaluation is done 5 days after infestation on mortality.
smiles,measurement,value
"CCC(=O)NC1CCc2cc(N3CCC(c4cc(C(F)(F)F)cc(C(F)(F)F)c4)(C(F)(F)F)C3)ccc21 (stereo not shown) [Compound A6, N-[5-[3-[3,5-bis(trifluoromethyl)phenyl]-3-(trifluoromethyl)pyrrolidin-1-yl]indan-1-yl]propanamide]",control,at least 80%
